Laboratory results from publication PMC5715787, “Structural basis for antibody recognition of the NANP repeats in Plasmodium falciparum circumsporozoite protein” (Proceedings of the National Academy of Sciences of the …, 2017).
Marks after values point to notes of the source that are not given here.

How the values were obtained:
Fab311 = assay: ITC affinity measurement of peptides to Fab311; format: binding, human; details: 25 °C, Dulbecco's PBS, Fab311 10.3 μM in cell, average and SD of triplicate experiments
Method: (§1) ITC affinity measurements were performed using a MicroCal Auto-iTC200 instrument (GE Healthcare). […]
(§2) General. All peptides were ordered from Innopep Inc. with a 10-μg/mL solution of the Fab of interest in blocking buffer. The purity of >98% and contained chlorine counter ions. The pep- membrane was then washed three times for 5 min each in TBST tides have N-terminal acetylation and C-terminal amidation to buffer, after which it was incubated for 2 h with an anti-human eliminate charges at the peptide termini. Fab genes were codon Fab secondary antibody conjugated to HRP (Sigma-Aldrich) at a optimized, synthesized, and cloned into pHCMV3 vectors by 1:20,000 dilution in blocking buffer. […]
(§3) Antibodies 311 and 317 were selected forITC. A MicroCal Auto-iTC200 (GE Healthcare) was used to structural studies because of their functional activity, high avidity perform ITC measurements. Before the experiments, all proteins index, and similar heavy-chain germline genes. were extensively dialyzed against Dulbecco’s PBS (Thermo Evaluation of the Protective Activity of mAbs. mAbs (100 μg for Fischer). The peptides were placed in the syringe at a concentration Ab311 and 300 μg for Ab317 and Ab2A10) against the NANP of 122μM for Ac-NPNANPNA-NH2, 116 μM for Ac-repeats of P. falciparum CSP were administered to 7- to 8-wk-old NPNANPNANPNA-NH2,89μM for Ac-[…]- […]
(§4) C57BL/6 mice (five mice per group) by i.v. injection [in 200 μLof NH2, and 110 μM for Ac-DPNANPNVDPNA-NH2, whereas the […]
(§5) PBS (pH 7.4)]. The mice were challenged 5–10 min later by i.v. concentrations of Fab fragments in the cell were 10.3 and 9.7 μM injection with 2,000 P. berghei chimeric sporozoites expressing for Fab311 and Fab317, respectively. The Fab and peptide P. falciparum CSP (3D7 strain) generated as previously described concentrations were determined by UV absorbance at 280 nm (22). Forty hours later, livers were harvested, and RNA was and 205 nm. Molar extinction coefficients for the peptides were isolated to quantify the malaria-specific 18s rRNA levels by real- estimated using a previously published method (35). Experi-time PCR (34). Inhibition of parasite development was calcu- ments were carried out in triplicate at 25 °C, except for lated by comparing the parasite liver burdens of experimental Fab317 binding to Ac-[…]-NH2, which was […]
(§6) and naive control mice. The statistical analyses were done with done in duplicate, and consisted of 16 injections of 2.45 μL each, the Mann–Whitney U test. Data were plotted using GraphPad with injection duration of 4.9 s, inject io n interval of 180 s, and Prism 6.0 software. No samples were excluded from statistical reference power of 5 μCa l. Fi tt in g of the integrate d titrati on analyses. peaks was performed with Origin 7.0 software using a single-site binding model. The first data point and any outliers were Expression and Purification of Recombinant CSP. The rsCSP con- excluded from the fit. […]
(§7) Two 1-L NaCl, 2.7 mM KCl, pH 8.0) with a 5:1 molar ratio of (NPNA)3 cultures were inoculated the next day with 25 mL overnight peptide to Fab. Crystals were grown using sitting-drop vapor culture and were grown at 37 °C. When the optical density at diffusion with a well solution containing 0.1 M MES (pH 6.0), 600 nm reached a value of 1, the cultures were induced with 36% PEG400, 5% PEG3000 for the Fab311–peptide complex, 1 mM isopropyl β-D-1-thiogalactopyranoside for 6 h. The cells and 0.1 M sodium citrate (pH 4.0), 1 M lithium chloride, 20% then were harvested and lysed by microfluidization. The lysate PEG6000 for the Fab317–peptide complex. Crystals were grown was incubated overnight with Ni cOmplete resin (Roche) and at 298 K and typically appeared within 3 d. Fab311–peptide was eluted using a buffer containing 200 mM imidazole. Typi- crystals were cryo-cooled without additional cryoprotection, cally, 10 mg of protein was obtained per 2 L of culture. Samples while Fab317–peptide crystals were cryoprotected by soaking in […]

Fab317 = assay: ITC affinity measurement of peptides to Fab317; format: binding, human; details: 25 °C, Dulbecco's PBS, Fab317 9.7 μM in cell
Method: as §1, §2, §3, §4, §5, §6, §7

[1] = average and SD of triplicate experiments
[2] = peptide 89 μM in syringe, duplicate experiments

| Compound | ∆H (Fab311) | ∆S (Fab311) [cal^−1⋅mol^−1⋅degree^−1] | ∆H (Fab317; [1]) | ∆S (Fab317; [1]) [cal^−1⋅mol^−1⋅degree^−1] | ∆H (Fab317; [2]) | ∆S (Fab317; [2]) |
| --- | --- | --- | --- | --- | --- | --- |
| CC(=O)N[C@@H](CC(N)=O)C(=O)N1CCC[C@H]1C(=O)N[C@@H](CC(N)=O)C(=O)N[C@@H](C)C(=O)N[C@@H](CC(N)=O)C(=O)N1CCC[C@H]1C(=O)N[C@@H](CC(N)=O)C(=O)N[C@@H](C)C(=O)N[C@@H](CC(N)=O)C(=O)N1CCC[C@H]1C(=O)N[C@@H](CC(N)=O)C(=O)N[C@@H](C)C(N)=O [(NPNA)3, Ac-NPNANPNANPNA-NH2] | −29,823 ± 261 cal/mol | −70 ± 1 | −15,700 ± 225 cal/mol | −20 ± 1 |  |  |
| CC(=O)N[C@@H](CC(N)=O)C(=O)N1CCC[C@H]1C(=O)N[C@@H](CC(N)=O)C(=O)N[C@@H](C)C(=O)N[C@@H](CC(N)=O)C(=O)N1CCC[C@H]1C(=O)N[C@@H](CC(N)=O)C(=O)N[C@@H](C)C(N)=O [(NPNA)2, Ac-NPNANPNA-NH2] | −16,363 ± 261 cal/mol | −25 ± 1 | −12,090 ± 221 cal/mol | −10 ± 1 |  |  |
| Ac-NPNVDPNANPNV-NH2 [NPNVDPNANPNV, Ac-NPNVDPNANPNV-NH2] | −18,657 ± 378 cal/mol | −36 ± 2 |  |  | −9,657 ± 426 cal/mol | −10 ± 2* cal^−1⋅mol^−1⋅degree^−1 |
| Ac-DPNANPNVDPNA-NH2 [DPNANPNVDPNA, Ac-DPNANPNVDPNA-NH2] | −20,200 ± 1,078 cal/mol | −41 ± 4 | −9,387 ± 152 cal/mol | −2 ± 1 |  |  |
